# Laboratory results published in PubChem BioAssay AID540256 (National Center for Advancing Translational Sciences (NCATS), 2011).
# Among all 300,000 compounds or so, about 3,700 (1.2%) were called active. The shares of active, inactive and inconclusive entries below differ from those in the screen. The call rests on the fitted dose curve; tested in HEK293 cells. Potencies of inconclusive entries are doubtful fits and often do not repeat.
# Test: qHTS for Inhibitors of binding or entry into cells for Lassa Virus; further: nearly all actives have a fitted effect of over 50% in size
# Conditions: Lassa virus pseudotype entry inhibition, cell reporter; series mostly up to 37.9 µM
# Potency means the concentration at half of the fitted maximal effect.
row,Structure (SMILES),Potency
1,O=C(NNC(=O)c1ccccc1O)c1ccccc1O,"inconclusive: 0.316 µM [inhibitor, full curve, poor fit]"
2,COc1ccc(C)cc1-n1nnnc1SCc1cc(=O)n2cc(C)ccc2n1,"inconclusive: 23.1 µM [inhibitor, single point]"
3,O=C1CC(C(=O)Nc2ccc(Cl)cc2)S/C(=N\N=C\c2ccco2)N1 (stereo unspecified),"inconclusive: 31.6 µM [inhibitor, partial curve, poor fit]"
4,O=[N+]([O-])c1cc(C(F)(F)F)ccc1NCCOc1ccccc1,"inconclusive: 0.355 µM [activator, full curve, poor fit]"
5,COc1cccc(CNC(=O)Cc2ccc(-n3c(=O)[nH]c4ccccc4c3=O)cc2)c1,"inconclusive: 0.891 µM [inhibitor, partial curve, poor fit]"
6,COc1ccc(S(=O)(=O)N(CC(=O)Nc2cccc(C(F)(F)F)c2)c2ccc(C)cc2)cc1,"inconclusive: 35.5 µM [inhibitor, single point]"
7,O=C(COC(=O)c1n[nH]c2ccccc12)Nc1ccc([N+](=O)[O-])cc1,"inconclusive: 29.1 µM [activator, single point]"
8,CCn1c(O)c(/C=C2\C=NN=C2c2ccccc2)sc1=S,"inconclusive: 11.2 µM [inhibitor, partial curve]"
9,O=C(c1ccc(Cl)cc1)C1C2C(=O)N(c3ccccc3)C(=O)C2C2CCCN21 (stereo unspecified),inactive
10,C=C(C)[C@H]1Cc2c(ccc3c2O[C@@H]2COc4cc(OC)c(OC)cc4[C@@H]2C3=O)O1,active: 2.31 µM
11,Cc1noc(C)c1COc1ccc(C(=O)OCC(=O)N2CC3(C)CC2CC(C)(C)C3)cc1 (stereo unspecified),"inconclusive: 20 µM [inhibitor, single point]"
12,CC(C)NCC(O)COc1ccc(COCCOC(C)C)cc1 (stereo unspecified),"inconclusive: 16.4 µM [activator, single point]"
13,CCOC(=O)c1cccc(NC(=O)c2ccc3nc(Cc4ccccc4)oc3c2)c1,inactive
14,CC(C)N1C(=O)S/C(=C/c2ccc(Sc3nc4ccccc4[nH]3)o2)C1=O,"inconclusive: 12.6 µM [inhibitor, partial curve, poor fit]"
15,Cc1ccc(CNc2nc(-c3cccnc3)nc3ccccc23)cc1,"inconclusive: 31.6 µM [inhibitor, single point]"
16,COc1cc(/C=C/C(=O)O)cc(S(=O)(=O)NCc2ccco2)c1OC,"inconclusive: 0.794 µM [inhibitor, single point]"
17,O=C(C1COc2ccccc2O1)N1CCN(c2ccc(F)cc2)CC1 (stereo unspecified),"inconclusive: 29.1 µM [inhibitor, single point]"
18,CCOC(=O)c1c(C)[nH]c(C2=NNC(=Nc3ccccc3OC)SC2)c1C,"inconclusive: 23.1 µM [inhibitor, single point]"
19,CCN(CCCNC(=O)CCc1nc(-c2ccc(OC)cc2)no1)c1cccc(C)c1,"inconclusive: 35.5 µM [inhibitor, single point]"
20,COc1ccccc1C=NN=C(NN=Cc1ccccc1OC)NN=Cc1ccccc1OC,active: 12.6 µM
21,CS(=O)(=O)Nc1ccc(C(=O)Nc2ccc(S(=O)(=O)N3CCCC3)cc2)cc1,inactive
22,CN(C)c1ccc(C=C2C(=O)OC3(CCCC3)OC2=O)cc1,"inconclusive: 5.62 µM [inhibitor, partial curve, poor fit]"

# Among those listed so far, these have a furan ring, fused or not.
row,Structure (SMILES),Potency
3,O=C1CC(C(=O)Nc2ccc(Cl)cc2)S/C(=N\N=C\c2ccco2)N1 (stereo unspecified),"inconclusive: 31.6 µM [inhibitor, partial curve, poor fit]"
14,CC(C)N1C(=O)S/C(=C/c2ccc(Sc3nc4ccccc4[nH]3)o2)C1=O,"inconclusive: 12.6 µM [inhibitor, partial curve, poor fit]"
16,COc1cc(/C=C/C(=O)O)cc(S(=O)(=O)NCc2ccco2)c1OC,"inconclusive: 0.794 µM [inhibitor, single point]"

# More entries

row,Structure (SMILES),Potency
1,OCC1CCCN(C(=S)NCCc2ccccc2)C1 (stereo unspecified),"inconclusive: 6.31 µM [activator, partial curve]"
2,CCOc1ccc(S(=O)(=O)N(CC(=O)Nc2ccc3c(c2)OCO3)c2ccccc2)cc1,inactive
3,CN(C)S(=O)(=O)c1ccc(C(=O)NCc2nnc(SCC(=O)Nc3ccc(F)cc3)n2-c2ccc(F)cc2)cc1,"inconclusive: 0.164 µM [inhibitor, full curve, poor fit]"
4,CCNc1nc(OC)nc(Oc2ccc(C(=O)OC)cc2)n1,"inconclusive: 6.31 µM [inhibitor, single point]"
5,COC(=O)c1scc(-c2ccc(C)cc2)c1S(=O)(=O)Nc1ccc(N(C)C)cc1,inactive
6,CCOC(=O)c1ccc(NC(=S)Nc2ccc(C)cc2)cc1,"inconclusive: 22.4 µM [inhibitor, single point]"
7,CC(C)c1ccc(OCC(=O)Nc2cccc(C(=O)Nc3ccccc3C(=O)O)c2)cc1,"inconclusive: 35.5 µM [inhibitor, single point]"
8,CCN(Cc1ccccc1)c1ccc(/C=N/NC(=O)c2cccc(S(=O)(=O)N3CCOCC3)c2)cc1,"inconclusive: 1.12 µM [inhibitor, full curve, poor fit]"
9,O=C(c1ccco1)N1CCN(C(c2cccs2)c2nnnn2C2CCCC2)CC1 (stereo unspecified),inactive
10,Cc1cc(C(=O)CSc2nnc(NCc3ccccc3)s2)c(C)n1C,"inconclusive: 7.94 µM [inhibitor, partial curve, poor fit]"
11,NC(=NC1CCCCC1)NS(=O)(=O)c1ccccc1,"inconclusive: 5.62 µM [inhibitor, single point]"
12,COc1ccc(N(CC(=O)NC2CCS(=O)(=O)C2)S(=O)(=O)c2ccc(Cl)c(Cl)c2)cc1 (stereo unspecified),"inconclusive: 22.4 µM [inhibitor, partial curve, poor fit]"
13,O=C(CCN1C(=O)c2ccccc2C1=O)C1=NN[C@@H]2C(=O)N(c3ccc(F)cc3)C(=O)[C@H]12,"inconclusive: 14.6 µM [activator, partial curve, poor fit]"
14,Cc1cc2ccccc2n1-c1ccc(C(=O)N2CCC(C(=O)NCc3ccccc3Cl)CC2)s1,inactive
15,Cn1c(N)c(C(C[N+](=O)[O-])c2ccccc2Cl)c(=O)n(C)c1=O (stereo unspecified),"inconclusive: 7.08 µM [inhibitor, partial curve, poor fit]"
16,COc1ccc(CNC(=O)c2csc(Cc3ccccc3)n2)cc1,"inconclusive: 7.94 µM [inhibitor, partial curve, poor fit]"
17,Cc1ccc(Nc2nc(N)nc(CSCCO)n2)cc1,"inconclusive: 1.26 µM [activator, full curve]"
18,COCCCNCCCCOc1ccc(Br)cc1C,"inconclusive: 25.1 µM [inhibitor, single point]"
19,CN1CCc2c(sc(NC(=O)C3COc4ccccc4O3)c2C(N)=O)C1 (stereo unspecified),"inconclusive: 2.82 µM [inhibitor, partial curve, poor fit]"
20,COc1cccc(/C=C/c2onc(C)c2S(=O)(=O)N2CCC(C(=O)N3CCC(C)CC3)CC2)c1,"inconclusive: 6.31 µM [inhibitor, partial curve, poor fit]"
21,CCc1ccc2nc3nc(C)cc(C)c3c(N)c2c1,"inconclusive: 29.1 µM [inhibitor, single point]"
22,CCC(C)(C)n1nnnc1C(C(C)C)N(CCN1CCOCC1)Cc1cc2cccc(C)c2[nH]c1=O (stereo unspecified),inactive

# Three structures already listed, arranged by count of non-hydrogen atoms, smallest number first.
row,Structure (SMILES),Potency
6,CCOC(=O)c1ccc(NC(=S)Nc2ccc(C)cc2)cc1,"inconclusive: 22.4 µM [inhibitor, single point]"
14,Cc1cc2ccccc2n1-c1ccc(C(=O)N2CCC(C(=O)NCc3ccccc3Cl)CC2)s1,inactive
3,CN(C)S(=O)(=O)c1ccc(C(=O)NCc2nnc(SCC(=O)Nc3ccc(F)cc3)n2-c2ccc(F)cc2)cc1,"inconclusive: 0.164 µM [inhibitor, full curve, poor fit]"

# Next results follow.

row,Structure (SMILES),Potency
1,Cc1occc1C(=O)NNS(=O)(=O)c1ccc([N+](=O)[O-])cc1,"inconclusive: 10 µM [inhibitor, single point]"
2,O=C(N/N=C/c1c(O)n(CCc2ccccc2)c(=O)[nH]c1=O)c1ccccc1,inactive
3,Cc1ccc(S(=O)(=O)c2c(N)n(-c3ccccc3)c3nc4ccccc4nc23)cc1,inactive
4,CN(Cc1ccco1)C(=O)Cn1cc(S(=O)(=O)N2CCCC2)c(S(=O)(=O)N2CCCC2)c1,inactive
5,O=C(NCc1cccnc1)c1ccc2c(c1)N(Cc1ccccc1)CCS2,inactive
6,Cc1nc(NC(=O)c2ccc(F)cc2)nc2cc3c(cc12)OCO3,inactive
7,COc1ccc(-c2cc(C(F)(F)F)nc(SCC(=O)N3CCC(C)CC3)n2)cc1,inactive
8,O=C(NNC(=O)c1cnccn1)c1cccc([N+](=O)[O-])c1,inactive
9,Cc1ccc(-c2cc(NC(=O)COc3ccc(Cl)cc3C)on2)cc1,inactive
10,COC(=O)Nc1nc2c(s1)CCCC2,"inconclusive: 18.3 µM [activator, single point]"
11,Cc1onc(-c2c(F)cccc2Cl)c1C(=O)N1CCN(c2ncc(Br)cn2)CC1,"inconclusive: 1.12 µM [inhibitor, full curve]"
12,CC(C)(C)n1nnnc1CN1CCC(NC(=O)NC2CCCCC2)CC1,"inconclusive: 14.6 µM [inhibitor, partial curve, poor fit]"
13,Cn1c(=O)oc2cc(S(=O)(=O)Nc3ccccc3O)ccc21,"inconclusive: 1.12 µM [inhibitor, partial curve, poor fit]"
14,CC(C)Sc1nc2c(c(=O)[nH]c(=O)n2C)n1CC(O)COc1ccccc1 (stereo unspecified),"inconclusive: 0.631 µM [inhibitor, full curve, poor fit]"
15,CN(Cc1ccccc1)C(=O)CN1CCN(C(c2ccccc2)c2ccccc2)CC1,"inconclusive: 7.08 µM [inhibitor, full curve, poor fit]"
16,COc1ccc2oc(=O)c(-c3csc(Nc4ccc(O)cc4)n3)cc2c1,active: 10 µM
17,O=C(c1nn2c(C(F)(F)F)cc(-c3ccco3)nc2c1Br)N1CCCc2ccccc21,"inconclusive: 35.5 µM [inhibitor, single point]"
18,COCCN(C(=O)COC(=O)/C=C/c1ccc(Cl)c(Cl)c1)c1c(N)n(Cc2ccccc2)c(=O)[nH]c1=O,"inconclusive: 20 µM [inhibitor, single point]"
19,O=[N+]([O-])c1ccc2c(c1)nc1n2CCSC1,inactive
20,Cc1nc(COc2ccccc2Cl)sc1-c1ccnc(N)n1,inactive
21,Cc1nc2c(-c3ccccc3)c(C)nn2c(C)c1CCC(=O)NCc1ccc(F)cc1,inactive
22,Cc1csc2nc(O)c(C(=O)NC3CCCCC3C)c(=O)n12 (stereo unspecified),"inconclusive: 35.5 µM [inhibitor, single point]"
